Assay results taken from paper PMC8191236.
Results are given in words; binding and its absence hold for the method and conditions named. In cells and extracts the contact can be indirect. Some binding calls cover weakened binding; strength is not graded here. For some of these results: Tags and fused reporters may be left off the sequences shown. Blank lines part the entries; values can stand above or below the molecule they belong to.

Sequences of proteins named here, by UniProt entry; tags and fusion partners are left off. A change or cut given only in a name is not applied to a line headed by its entry. A line that says so, or that is headed by a name, gives the form on record, which may keep a tag or linker.
UniProt P35568: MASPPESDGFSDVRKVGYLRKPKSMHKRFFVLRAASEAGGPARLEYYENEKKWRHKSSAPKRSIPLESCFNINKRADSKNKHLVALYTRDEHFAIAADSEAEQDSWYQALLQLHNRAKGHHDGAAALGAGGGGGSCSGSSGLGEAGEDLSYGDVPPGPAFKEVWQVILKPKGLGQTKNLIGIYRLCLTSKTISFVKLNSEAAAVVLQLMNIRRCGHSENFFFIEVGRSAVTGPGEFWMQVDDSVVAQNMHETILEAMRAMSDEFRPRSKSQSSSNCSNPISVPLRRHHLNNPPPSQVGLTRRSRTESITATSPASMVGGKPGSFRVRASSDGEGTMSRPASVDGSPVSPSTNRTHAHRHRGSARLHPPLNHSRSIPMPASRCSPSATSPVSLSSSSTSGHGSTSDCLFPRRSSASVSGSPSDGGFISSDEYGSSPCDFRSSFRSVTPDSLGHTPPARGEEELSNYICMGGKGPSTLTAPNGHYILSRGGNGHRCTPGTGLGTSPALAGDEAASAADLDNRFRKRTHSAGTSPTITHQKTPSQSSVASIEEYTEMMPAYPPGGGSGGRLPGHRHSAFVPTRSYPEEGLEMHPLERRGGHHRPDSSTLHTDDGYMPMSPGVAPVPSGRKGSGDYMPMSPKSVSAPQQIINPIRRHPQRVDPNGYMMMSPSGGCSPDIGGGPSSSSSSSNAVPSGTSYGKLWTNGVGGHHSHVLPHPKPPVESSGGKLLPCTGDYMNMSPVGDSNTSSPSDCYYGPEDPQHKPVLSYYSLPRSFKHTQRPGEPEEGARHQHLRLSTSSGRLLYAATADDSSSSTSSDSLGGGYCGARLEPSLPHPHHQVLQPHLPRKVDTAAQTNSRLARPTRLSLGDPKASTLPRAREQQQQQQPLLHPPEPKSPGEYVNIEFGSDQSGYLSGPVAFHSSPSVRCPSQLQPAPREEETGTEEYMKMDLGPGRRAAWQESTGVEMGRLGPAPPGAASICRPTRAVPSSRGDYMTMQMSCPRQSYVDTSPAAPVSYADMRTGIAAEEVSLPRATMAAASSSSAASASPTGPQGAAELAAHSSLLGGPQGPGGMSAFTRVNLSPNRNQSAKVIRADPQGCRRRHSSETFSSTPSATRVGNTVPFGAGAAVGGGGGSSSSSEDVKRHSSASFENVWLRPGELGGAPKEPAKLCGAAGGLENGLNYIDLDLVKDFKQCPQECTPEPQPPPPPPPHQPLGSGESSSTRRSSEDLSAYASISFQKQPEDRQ
FLAG-IRS-1 K1186_1189R mutant, in 293T cells (P35568, form named): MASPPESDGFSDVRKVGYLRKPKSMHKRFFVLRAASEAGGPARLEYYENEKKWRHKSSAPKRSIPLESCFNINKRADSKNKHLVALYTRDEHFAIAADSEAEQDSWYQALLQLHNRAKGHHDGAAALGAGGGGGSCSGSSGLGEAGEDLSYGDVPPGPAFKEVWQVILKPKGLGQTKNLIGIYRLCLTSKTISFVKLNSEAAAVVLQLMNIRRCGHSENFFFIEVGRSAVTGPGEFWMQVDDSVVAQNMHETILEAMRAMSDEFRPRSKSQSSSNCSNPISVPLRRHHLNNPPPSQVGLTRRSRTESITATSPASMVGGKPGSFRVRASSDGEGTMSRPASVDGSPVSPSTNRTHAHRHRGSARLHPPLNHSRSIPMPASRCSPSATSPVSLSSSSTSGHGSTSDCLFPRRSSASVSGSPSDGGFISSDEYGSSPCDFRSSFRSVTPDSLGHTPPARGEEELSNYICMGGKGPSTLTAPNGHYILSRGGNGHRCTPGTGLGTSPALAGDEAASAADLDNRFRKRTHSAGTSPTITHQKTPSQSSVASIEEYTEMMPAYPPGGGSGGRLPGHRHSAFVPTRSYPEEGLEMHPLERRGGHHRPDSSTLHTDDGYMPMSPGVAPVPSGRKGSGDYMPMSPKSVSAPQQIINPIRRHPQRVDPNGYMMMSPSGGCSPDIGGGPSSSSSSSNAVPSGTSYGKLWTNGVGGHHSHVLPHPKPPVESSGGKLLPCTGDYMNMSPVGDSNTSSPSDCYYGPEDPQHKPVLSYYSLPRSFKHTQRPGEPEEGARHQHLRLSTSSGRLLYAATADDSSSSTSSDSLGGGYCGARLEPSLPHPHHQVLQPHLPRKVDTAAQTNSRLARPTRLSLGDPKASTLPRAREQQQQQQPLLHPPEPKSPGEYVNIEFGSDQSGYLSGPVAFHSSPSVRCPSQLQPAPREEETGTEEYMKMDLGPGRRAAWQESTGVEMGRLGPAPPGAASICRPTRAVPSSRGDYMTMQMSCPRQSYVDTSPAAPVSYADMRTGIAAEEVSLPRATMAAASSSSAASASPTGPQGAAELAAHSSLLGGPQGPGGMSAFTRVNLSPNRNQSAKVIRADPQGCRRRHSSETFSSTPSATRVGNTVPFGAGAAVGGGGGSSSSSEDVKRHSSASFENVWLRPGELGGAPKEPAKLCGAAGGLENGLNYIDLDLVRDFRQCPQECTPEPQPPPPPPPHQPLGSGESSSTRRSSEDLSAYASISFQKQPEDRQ
UniProt P08069: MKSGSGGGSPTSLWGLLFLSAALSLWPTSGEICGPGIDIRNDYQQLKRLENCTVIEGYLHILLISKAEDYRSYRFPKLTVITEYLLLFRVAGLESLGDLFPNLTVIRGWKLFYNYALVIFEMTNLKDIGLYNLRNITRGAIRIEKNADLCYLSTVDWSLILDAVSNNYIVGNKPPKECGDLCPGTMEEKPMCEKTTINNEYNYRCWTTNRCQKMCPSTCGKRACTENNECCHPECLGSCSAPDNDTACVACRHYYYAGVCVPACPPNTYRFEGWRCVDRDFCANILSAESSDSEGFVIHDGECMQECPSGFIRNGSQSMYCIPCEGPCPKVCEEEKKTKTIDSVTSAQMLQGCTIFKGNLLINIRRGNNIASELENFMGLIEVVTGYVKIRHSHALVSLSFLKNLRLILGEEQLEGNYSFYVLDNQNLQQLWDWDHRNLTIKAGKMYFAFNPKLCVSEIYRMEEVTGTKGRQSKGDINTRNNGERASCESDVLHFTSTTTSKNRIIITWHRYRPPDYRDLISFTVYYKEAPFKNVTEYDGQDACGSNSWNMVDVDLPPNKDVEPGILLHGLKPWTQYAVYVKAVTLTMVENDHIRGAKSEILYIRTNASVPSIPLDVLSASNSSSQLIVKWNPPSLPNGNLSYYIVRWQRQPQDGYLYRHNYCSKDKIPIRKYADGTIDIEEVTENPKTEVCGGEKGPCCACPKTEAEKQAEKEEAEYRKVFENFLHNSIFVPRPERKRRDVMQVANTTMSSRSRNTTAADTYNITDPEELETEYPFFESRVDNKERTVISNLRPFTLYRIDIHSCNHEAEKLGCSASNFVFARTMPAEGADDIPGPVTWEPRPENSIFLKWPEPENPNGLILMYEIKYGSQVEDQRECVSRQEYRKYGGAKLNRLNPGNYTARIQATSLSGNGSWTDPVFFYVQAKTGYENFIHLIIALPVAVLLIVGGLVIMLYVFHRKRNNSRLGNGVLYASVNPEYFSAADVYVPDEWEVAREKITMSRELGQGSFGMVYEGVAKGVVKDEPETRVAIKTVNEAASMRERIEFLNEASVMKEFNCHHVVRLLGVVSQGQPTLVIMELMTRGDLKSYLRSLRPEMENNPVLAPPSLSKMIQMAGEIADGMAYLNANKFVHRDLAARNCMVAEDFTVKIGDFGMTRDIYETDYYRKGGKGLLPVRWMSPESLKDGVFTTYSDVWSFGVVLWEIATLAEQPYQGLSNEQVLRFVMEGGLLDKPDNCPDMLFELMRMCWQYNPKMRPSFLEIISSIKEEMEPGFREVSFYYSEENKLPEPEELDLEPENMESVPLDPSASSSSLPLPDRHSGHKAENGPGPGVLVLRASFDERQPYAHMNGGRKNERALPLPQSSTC

How the values were obtained:
[1] = molecular target: T1, myc-tagged TRAF4 (UniProt Q9BUZ4); assay: co-IP; 293T cells transiently transfected with FLAG-IRS-1 and myc-TRAF4 or empty vector; immunoprecipitation with an anti-Myc antibody, Western blot; NP40 lysis buffer, 4 °C, 3 h
T1 sequence: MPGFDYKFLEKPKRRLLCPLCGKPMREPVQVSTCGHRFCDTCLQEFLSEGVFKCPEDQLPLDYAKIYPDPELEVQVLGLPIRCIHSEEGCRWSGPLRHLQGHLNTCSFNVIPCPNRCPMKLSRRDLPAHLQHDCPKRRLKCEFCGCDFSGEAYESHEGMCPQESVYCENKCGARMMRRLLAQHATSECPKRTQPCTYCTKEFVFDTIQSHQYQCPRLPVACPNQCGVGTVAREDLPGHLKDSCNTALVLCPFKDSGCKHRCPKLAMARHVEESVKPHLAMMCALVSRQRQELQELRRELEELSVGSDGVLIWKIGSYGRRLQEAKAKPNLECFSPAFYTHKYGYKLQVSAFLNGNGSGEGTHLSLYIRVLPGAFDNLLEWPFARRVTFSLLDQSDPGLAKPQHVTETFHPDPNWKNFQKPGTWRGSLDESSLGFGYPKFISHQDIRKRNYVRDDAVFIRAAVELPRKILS

[2] = molecular target: FLAG-IRS-1 K1186_1189R mutant, in 293T cells (human) (UniProt P35568); assay: co-IP; 293T cells transfected with FLAG-IRS-1 WT or K1186_1189R mutant in the absence or presence of TRAF4, serum starved 24 h, IGF-1 (100 ng/ml) 15 min; immunoprecipitation with anti-FLAG antibody, Western blot
[3] = molecular target: FLAG-tagged IRS-1 (wild type), in 293T cells (human) (UniProt P35568); assay: as above
[4] = molecular target: endogenous IRS-1 (MCF-7) (human (endogenous in MCF-7)) (UniProt P35568); assay: co-IP; as a3, but MCF-7 cells with TRAF4 knocked down by a pool of two siRNAs; serum starved 24 h, with or without IGF-1 (100 ng/ml) 15 min; immunoprecipitation with anti-IRS-1 antibody
[5] = molecular target: FLAG-IRS-1 (wild type), in MCF-7 cells (human) (UniProt P35568); assay: co-IP; MCF-7 cells transfected with FLAG-IRS-1 with and without TRAF4, serum starved 24 h, with or without IGF-1 (100 ng/ml) 15 min; immunoprecipitation with anti-FLAG antibody, Western blot
[6] = molecular target: endogenous IRS-1 (MCF-7) (human (endogenous in MCF-7)) (UniProt P35568); assay: co-IP; endogenous proteins of MCF-7 cells, serum starved 24 h, with or without IGF-1 (100 ng/ml, 10 or 15 min; Fig. 3D with control siRNA); immunoprecipitation with anti-IRS-1 antibody and protein A-agarose or IgG control, Western blot
[7] = molecular target: T2, endogenous TRAF4 (MCF-7) (human (endogenous in MCF-7)) (UniProt Q9BUZ4); assay: co-IP; endogenous proteins of MCF-7 cells; immunoprecipitation with a TRAF4-specific antibody or IgG control, Western blot
T2 sequence: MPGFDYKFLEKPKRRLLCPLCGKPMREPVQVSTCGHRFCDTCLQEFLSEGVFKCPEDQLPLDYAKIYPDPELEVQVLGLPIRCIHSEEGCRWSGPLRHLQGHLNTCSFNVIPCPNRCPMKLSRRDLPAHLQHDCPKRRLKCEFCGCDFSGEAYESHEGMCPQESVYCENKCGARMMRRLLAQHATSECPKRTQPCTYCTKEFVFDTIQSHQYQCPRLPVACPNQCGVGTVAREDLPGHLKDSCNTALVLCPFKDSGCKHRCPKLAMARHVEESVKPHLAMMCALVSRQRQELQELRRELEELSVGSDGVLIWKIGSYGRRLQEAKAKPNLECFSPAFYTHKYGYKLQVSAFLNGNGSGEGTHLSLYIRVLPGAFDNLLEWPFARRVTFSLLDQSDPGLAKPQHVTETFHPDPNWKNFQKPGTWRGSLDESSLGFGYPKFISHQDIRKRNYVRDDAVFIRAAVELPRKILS

[8] = molecular target: endogenous IRS-1 (MCF-7) (human (endogenous in MCF-7)) (UniProt P35568); assay: co-IP; endogenous proteins of MCF-7 cells, serum starved 24 h, with or without IGF-1 (100 ng/ml, 10 or 15 min; Fig. 3D with control siRNA); immunoprecipitation with anti-IRS-1 antibody and protein A-agarose or IgG control, Western blot; remark: listed apart in the source
[9] = molecular target: FLAG-IRS-1 K1186_1189R mutant, in 293T cells (human) (UniProt P35568); assay: co-IP; 293T cells transiently transfected with Myc-TRAF4 and FLAG-IRS-1 WT or K1186_1189R mutant; immunoprecipitation with anti-FLAG antibody, Western blot
[10] = molecular target: FLAG-tagged IRS-1 (wild type), in 293T cells (human) (UniProt P35568); assay: as above

Molecule: FLAG-tagged IRS-1 (wild type), in 293T cells (from UniProt P35568 1-1242)
- binding [1]: binds

Molecule: endogenous IGF-1 receptor (293T), detected by its beta subunit (from UniProt P08069 741-1367; P08069 31-736)
- binding [2]: binds
- binding [3]: binds

Molecule: endogenous IGF-1 receptor (MCF-7), detected by its beta subunit (from UniProt P08069 741-1367; P08069 31-736)
- binding [4]: no binding (condition: with TRAF4 knocked down by siRNA)
- binding [5]: binds
- binding [6]: binds

B1: endogenous TRAF4 (MCF-7) (protein, UniProt Q9BUZ4 1-470)
chain: MPGFDYKFLEKPKRRLLCPLCGKPMREPVQVSTCGHRFCDTCLQEFLSEGVFKCPEDQLPLDYAKIYPDPELEVQVLGLPIRCIHSEEGCRWSGPLRHLQGHLNTCSFNVIPCPNRCPMKLSRRDLPAHLQHDCPKRRLKCEFCGCDFSGEAYESHEGMCPQESVYCENKCGARMMRRLLAQHATSECPKRTQPCTYCTKEFVFDTIQSHQYQCPRLPVACPNQCGVGTVAREDLPGHLKDSCNTALVLCPFKDSGCKHRCPKLAMARHVEESVKPHLAMMCALVSRQRQELQELRRELEELSVGSDGVLIWKIGSYGRRLQEAKAKPNLECFSPAFYTHKYGYKLQVSAFLNGNGSGEGTHLSLYIRVLPGAFDNLLEWPFARRVTFSLLDQSDPGLAKPQHVTETFHPDPNWKNFQKPGTWRGSLDESSLGFGYPKFISHQDIRKRNYVRDDAVFIRAAVELPRKILS
- binding [8]: binds

The next lines start with the values.

- binding [7]: binds
Molecule: endogenous IRS-1 (MCF-7) (from UniProt P35568 1-1242)

- binding [9]: binds
- binding [10]: binds
B2: myc-tagged TRAF4 (protein, UniProt Q9BUZ4 1-470)
chain: MPGFDYKFLEKPKRRLLCPLCGKPMREPVQVSTCGHRFCDTCLQEFLSEGVFKCPEDQLPLDYAKIYPDPELEVQVLGLPIRCIHSEEGCRWSGPLRHLQGHLNTCSFNVIPCPNRCPMKLSRRDLPAHLQHDCPKRRLKCEFCGCDFSGEAYESHEGMCPQESVYCENKCGARMMRRLLAQHATSECPKRTQPCTYCTKEFVFDTIQSHQYQCPRLPVACPNQCGVGTVAREDLPGHLKDSCNTALVLCPFKDSGCKHRCPKLAMARHVEESVKPHLAMMCALVSRQRQELQELRRELEELSVGSDGVLIWKIGSYGRRLQEAKAKPNLECFSPAFYTHKYGYKLQVSAFLNGNGSGEGTHLSLYIRVLPGAFDNLLEWPFARRVTFSLLDQSDPGLAKPQHVTETFHPDPNWKNFQKPGTWRGSLDESSLGFGYPKFISHQDIRKRNYVRDDAVFIRAAVELPRKILS
